The values that follow come from paper PMC5095031.

Chains of the proteins cited; added tags and fusions are not shown. Lines headed by an entry give the natural chain unless they say otherwise; changes in a name come on top.
UniProt Q96FW1: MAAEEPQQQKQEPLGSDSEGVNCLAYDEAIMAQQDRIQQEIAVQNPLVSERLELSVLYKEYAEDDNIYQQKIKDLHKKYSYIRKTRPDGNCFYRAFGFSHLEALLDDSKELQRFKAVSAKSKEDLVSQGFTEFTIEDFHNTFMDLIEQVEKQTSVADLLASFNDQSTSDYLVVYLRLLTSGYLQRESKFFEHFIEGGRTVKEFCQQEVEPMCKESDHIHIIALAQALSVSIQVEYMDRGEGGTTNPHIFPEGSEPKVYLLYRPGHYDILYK

These are yes or no findings as the source states them, for the method shown. For some of these results: Binding seen in cells or lysates may run through a third protein. Some results given as binding are weak or reduced against the parent protein; the word gives no strength. For some of these results: Tags and fused reporters may be left off the sequences shown.

One assay has as its target T1, GST-FOXM1 (UniProt Q08050).
T1 sequence: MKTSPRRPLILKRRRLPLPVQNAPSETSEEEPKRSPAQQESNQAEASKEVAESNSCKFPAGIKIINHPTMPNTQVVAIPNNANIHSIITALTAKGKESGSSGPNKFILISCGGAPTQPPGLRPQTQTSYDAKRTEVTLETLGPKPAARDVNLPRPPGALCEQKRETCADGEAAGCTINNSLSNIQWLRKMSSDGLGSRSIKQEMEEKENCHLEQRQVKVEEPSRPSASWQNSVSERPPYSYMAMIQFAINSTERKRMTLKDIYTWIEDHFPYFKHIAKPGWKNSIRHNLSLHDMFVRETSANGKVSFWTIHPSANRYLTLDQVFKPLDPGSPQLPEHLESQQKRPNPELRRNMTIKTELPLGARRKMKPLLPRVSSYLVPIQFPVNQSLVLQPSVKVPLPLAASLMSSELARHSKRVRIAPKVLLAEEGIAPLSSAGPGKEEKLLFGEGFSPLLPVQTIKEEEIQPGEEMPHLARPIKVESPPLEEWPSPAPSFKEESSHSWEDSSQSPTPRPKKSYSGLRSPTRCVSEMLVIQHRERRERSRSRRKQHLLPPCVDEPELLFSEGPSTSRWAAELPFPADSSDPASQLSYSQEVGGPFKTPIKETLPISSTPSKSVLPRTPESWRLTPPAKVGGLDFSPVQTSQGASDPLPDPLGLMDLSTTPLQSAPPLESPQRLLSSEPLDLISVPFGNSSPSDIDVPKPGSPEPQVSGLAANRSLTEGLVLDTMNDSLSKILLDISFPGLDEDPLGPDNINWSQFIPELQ
The assay can be described thus: pull-down; GST-pulldown: purified GST fusion protein incubated with purified HIS-OTUB1 proteins in 25 mM tris pH 8.0, 75 mM NaCl, 2.5 mM EDTA, 5 mM MgCl2, 2.5 mM DTT, 1% NP-40 at 37°C for 30 min; glutathione sepharose 4B; washes 100 to 400 mM NaCl; both purified.

For assay [1], the target named is T2, FOXM1 (in vivo co-IP of Figure 5C) (UniProt Q08050).
T2 sequence: T1 sequence
The assay can be described thus: co-IP; in vivo co-IP of OTUB1 full length and truncations with FOXM1; cell line not stated; 15% of lysate as input.

The target of assay [2] is endogenous OTUB1 (CAOV3 cells) (human (endogenous in CAOV3)) (UniProt Q96FW1). Nature of the assay: co-IP; IP of endogenous proteins from CAOV3 lysates, reciprocal; also after siRNA knockdown of OTUB1 or FOXM1; 15% of lysate as input.

For the molecule “HIS-tagged OTUB1^ΔN15 (from UniProt Q96FW1 16-271) (domain or fragment)”, the binding entry with GST-FOXM1 is reported as “binds”. Turning to “HIS-tagged OTUB1^ΔN46 (from UniProt Q96FW1 47-271) (domain or fragment)”, the binding result with GST-FOXM1 was “binds”. Turning to “HIS-tagged OTUB1^ΔN171-271 (from UniProt Q96FW1 1-170) (domain or fragment)”, the binding result in the assay with GST-FOXM1 is recorded as “binds”.

Regarding “OTUB1^ΔN15 (in vivo co-IP of Figure 5C) (from UniProt Q96FW1 16-271) (domain or fragment)”, the binding entry in assay [1] is “binds”.

With “OTUB1^ΔN46 (in vivo co-IP of Figure 5C) (from UniProt Q96FW1 47-271) (domain or fragment)”, in assay [1], the binding result is on record as “binds”. Still for that read-out and setting: under “OTUB1^ΔN171-271 (in vivo co-IP of Figure 5C) (from UniProt Q96FW1 1-170) (domain or fragment)” stands “binds”.

B1: endogenous FOXM1 (CAOV3 cells) (protein, UniProt Q08050 1-763)
chain: T1 sequence
For B1, the binding entry in assay [2] is recorded as “binds”.
